For assay [1], the target named is FUS fused to RFP and the microtubule-binding domain of Tau (FUS-RFP-MBD) (UniProt P35637). Nature of the assay: microtubule bench assay.
The target in assay [2] is TDP-43 fused to RFP and the microtubule-binding domain of Tau (TDP-RFP-MBD) (UniProt Q13148). The assay can be described thus: microtubule bench assay.

The chains behind the UniProt entries cited, without tags or fusion partners.
UniProt P35637: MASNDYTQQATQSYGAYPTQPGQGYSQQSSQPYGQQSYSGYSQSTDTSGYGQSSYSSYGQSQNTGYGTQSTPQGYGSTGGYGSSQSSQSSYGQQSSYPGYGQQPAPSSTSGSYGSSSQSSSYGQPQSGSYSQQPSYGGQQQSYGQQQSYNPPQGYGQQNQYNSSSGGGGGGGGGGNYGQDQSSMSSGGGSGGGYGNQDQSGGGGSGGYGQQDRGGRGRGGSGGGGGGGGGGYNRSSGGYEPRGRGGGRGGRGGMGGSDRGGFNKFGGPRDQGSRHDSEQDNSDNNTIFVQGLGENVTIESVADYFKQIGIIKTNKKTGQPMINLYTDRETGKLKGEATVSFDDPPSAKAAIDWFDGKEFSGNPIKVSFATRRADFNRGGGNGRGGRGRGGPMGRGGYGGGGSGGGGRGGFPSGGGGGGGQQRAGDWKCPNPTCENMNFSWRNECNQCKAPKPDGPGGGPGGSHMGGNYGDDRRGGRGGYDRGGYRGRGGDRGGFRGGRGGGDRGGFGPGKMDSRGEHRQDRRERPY
UniProt Q13148: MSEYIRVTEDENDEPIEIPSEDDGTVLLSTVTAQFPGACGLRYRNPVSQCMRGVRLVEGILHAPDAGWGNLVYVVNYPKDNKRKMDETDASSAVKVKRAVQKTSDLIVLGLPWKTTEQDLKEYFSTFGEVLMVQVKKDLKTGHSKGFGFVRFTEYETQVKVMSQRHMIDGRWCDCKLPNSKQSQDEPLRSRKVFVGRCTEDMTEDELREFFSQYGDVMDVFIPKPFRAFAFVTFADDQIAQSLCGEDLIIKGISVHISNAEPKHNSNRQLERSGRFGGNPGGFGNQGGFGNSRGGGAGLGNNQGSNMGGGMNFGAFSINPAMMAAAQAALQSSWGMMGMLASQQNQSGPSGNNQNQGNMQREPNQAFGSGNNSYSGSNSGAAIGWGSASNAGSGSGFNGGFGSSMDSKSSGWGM
UniProt Q15717: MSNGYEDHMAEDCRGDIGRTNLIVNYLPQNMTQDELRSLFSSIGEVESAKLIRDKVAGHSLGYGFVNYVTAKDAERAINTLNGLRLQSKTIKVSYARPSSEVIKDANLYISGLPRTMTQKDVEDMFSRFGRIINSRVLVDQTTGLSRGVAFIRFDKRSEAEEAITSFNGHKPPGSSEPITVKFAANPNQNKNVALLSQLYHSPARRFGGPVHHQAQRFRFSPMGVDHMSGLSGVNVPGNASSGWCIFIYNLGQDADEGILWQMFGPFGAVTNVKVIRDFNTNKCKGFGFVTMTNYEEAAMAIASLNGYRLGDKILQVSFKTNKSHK

No constants are given. Whether binding was seen depends on the method and setting. Some entries that bind do so weakly or less than the wild type.

As to “TDP-43 fused to GFP (prey) (from UniProt Q13148 1-414)”, the binding entry in assay [1] is reported as “binds”. For the substance HuR-GFP (from UniProt Q15717 1-326), in assay [2], the binding entry is on record as “binds”. Still for that read-out and setting: then “FUS fused to GFP (prey) (from UniProt P35637 1-526)”, with “binds”.

For the origin of these results see paper doi:10.1101/2023.07.25.550456.
